# Data as given in the supplement of paper PMC11006884.
# Chains of the proteins cited; added tags and fusions are not shown. Lines headed by an entry give the natural chain unless they say otherwise; changes in a name come on top.
# UniProt P05455: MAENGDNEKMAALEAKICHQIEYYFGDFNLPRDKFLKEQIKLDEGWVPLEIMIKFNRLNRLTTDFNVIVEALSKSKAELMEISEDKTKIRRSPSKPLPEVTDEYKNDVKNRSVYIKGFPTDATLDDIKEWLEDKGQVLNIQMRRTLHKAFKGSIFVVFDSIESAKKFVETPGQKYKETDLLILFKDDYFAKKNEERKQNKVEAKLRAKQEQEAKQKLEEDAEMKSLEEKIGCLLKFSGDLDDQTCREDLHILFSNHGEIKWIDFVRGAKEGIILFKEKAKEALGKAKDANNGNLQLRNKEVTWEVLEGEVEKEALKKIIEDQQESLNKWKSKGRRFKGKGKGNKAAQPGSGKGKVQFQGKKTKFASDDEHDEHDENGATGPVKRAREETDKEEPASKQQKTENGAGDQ
# UniProt O94830: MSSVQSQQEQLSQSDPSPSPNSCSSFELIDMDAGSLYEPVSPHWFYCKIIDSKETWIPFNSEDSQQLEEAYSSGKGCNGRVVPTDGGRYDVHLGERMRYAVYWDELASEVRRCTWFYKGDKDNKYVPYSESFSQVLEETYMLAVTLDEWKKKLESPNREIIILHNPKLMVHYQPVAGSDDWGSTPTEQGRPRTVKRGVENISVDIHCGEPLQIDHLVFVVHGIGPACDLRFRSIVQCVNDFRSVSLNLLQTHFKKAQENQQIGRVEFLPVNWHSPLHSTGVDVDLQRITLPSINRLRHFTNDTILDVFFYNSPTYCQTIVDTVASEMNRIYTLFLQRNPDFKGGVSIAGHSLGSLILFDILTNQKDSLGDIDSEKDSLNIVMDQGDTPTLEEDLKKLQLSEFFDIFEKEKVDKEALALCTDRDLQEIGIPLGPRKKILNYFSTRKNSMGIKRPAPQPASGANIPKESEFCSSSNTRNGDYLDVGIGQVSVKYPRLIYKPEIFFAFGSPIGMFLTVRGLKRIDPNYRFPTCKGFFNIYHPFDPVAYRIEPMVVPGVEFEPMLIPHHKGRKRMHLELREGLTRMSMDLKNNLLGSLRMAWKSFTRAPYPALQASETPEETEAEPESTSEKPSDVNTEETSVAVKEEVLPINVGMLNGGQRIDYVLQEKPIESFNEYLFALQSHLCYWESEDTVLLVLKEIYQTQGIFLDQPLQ
# UniProt O94906: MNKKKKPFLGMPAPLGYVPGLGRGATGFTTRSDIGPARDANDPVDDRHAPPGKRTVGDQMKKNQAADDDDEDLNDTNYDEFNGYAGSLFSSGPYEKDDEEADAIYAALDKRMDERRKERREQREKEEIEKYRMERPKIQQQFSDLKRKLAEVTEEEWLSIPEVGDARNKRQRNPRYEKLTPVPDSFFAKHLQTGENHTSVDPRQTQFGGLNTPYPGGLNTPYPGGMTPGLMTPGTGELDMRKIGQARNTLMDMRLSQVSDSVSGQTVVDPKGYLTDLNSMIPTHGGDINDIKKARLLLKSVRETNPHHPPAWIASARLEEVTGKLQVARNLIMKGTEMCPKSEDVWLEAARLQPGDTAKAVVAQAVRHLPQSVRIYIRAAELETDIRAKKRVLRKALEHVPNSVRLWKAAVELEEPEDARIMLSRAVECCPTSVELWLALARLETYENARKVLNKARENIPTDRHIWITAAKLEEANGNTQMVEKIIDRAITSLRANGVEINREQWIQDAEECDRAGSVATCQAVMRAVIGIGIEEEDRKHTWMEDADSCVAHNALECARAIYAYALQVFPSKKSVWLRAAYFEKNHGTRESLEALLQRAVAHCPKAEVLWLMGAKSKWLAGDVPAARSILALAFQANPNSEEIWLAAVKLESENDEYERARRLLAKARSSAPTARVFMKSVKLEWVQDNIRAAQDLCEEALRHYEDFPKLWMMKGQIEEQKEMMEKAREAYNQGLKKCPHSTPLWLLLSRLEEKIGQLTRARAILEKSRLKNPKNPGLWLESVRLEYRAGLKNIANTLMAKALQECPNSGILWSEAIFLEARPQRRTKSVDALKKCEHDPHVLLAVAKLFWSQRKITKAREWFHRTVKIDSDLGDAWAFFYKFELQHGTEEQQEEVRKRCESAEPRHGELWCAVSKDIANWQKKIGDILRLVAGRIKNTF
# UniProt P00558: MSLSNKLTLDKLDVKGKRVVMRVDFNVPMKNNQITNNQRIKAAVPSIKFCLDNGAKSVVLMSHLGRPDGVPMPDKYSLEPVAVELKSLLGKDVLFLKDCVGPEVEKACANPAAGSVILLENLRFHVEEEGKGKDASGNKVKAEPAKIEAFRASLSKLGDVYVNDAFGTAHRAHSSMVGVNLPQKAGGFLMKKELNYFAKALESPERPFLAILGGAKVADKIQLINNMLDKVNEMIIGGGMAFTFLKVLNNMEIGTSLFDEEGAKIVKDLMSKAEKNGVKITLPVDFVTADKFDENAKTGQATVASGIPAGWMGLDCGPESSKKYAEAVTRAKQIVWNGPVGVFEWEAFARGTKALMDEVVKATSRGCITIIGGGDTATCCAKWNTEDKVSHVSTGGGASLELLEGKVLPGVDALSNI
# UniProt O94885: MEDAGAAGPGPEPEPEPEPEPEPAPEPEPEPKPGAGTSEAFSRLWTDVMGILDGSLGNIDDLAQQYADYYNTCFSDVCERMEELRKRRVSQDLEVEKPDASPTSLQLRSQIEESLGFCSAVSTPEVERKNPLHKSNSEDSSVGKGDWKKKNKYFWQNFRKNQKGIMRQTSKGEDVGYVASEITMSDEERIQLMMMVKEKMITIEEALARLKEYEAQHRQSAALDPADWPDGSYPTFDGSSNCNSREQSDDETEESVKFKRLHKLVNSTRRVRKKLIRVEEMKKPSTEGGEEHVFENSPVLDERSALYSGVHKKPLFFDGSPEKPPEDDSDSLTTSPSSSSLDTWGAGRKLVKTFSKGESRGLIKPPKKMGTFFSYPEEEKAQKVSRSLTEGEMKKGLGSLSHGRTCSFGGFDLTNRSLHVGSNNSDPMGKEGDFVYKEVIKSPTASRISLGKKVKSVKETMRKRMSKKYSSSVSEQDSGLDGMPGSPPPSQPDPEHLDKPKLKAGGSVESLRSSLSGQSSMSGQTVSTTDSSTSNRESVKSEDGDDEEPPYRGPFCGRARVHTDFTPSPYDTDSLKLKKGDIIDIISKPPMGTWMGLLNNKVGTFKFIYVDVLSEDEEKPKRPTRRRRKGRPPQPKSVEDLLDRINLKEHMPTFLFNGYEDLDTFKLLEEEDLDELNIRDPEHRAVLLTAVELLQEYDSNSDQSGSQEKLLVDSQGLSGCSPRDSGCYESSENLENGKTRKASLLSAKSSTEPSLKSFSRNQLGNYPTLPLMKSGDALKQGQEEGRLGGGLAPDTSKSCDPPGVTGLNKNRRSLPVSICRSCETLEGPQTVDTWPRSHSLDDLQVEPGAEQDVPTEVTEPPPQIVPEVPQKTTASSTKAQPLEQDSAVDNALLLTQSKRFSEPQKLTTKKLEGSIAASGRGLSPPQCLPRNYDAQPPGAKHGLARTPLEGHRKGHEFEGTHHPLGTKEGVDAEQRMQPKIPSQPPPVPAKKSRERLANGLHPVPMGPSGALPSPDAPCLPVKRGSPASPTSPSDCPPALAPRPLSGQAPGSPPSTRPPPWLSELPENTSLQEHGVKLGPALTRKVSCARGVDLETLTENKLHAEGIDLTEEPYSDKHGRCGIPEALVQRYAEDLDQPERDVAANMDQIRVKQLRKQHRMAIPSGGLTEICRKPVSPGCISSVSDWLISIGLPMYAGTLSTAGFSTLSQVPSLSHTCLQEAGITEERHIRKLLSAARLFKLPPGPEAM
# UniProt P04075: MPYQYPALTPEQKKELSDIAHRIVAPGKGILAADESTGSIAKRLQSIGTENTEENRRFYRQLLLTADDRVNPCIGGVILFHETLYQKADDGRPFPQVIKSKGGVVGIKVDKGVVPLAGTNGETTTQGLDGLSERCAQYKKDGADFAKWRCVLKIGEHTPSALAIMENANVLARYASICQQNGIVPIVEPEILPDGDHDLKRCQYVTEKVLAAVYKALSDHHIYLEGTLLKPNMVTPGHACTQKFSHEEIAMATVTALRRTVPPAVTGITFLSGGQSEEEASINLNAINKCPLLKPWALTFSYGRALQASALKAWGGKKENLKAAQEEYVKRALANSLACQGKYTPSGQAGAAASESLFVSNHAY
# UniProt P05386, whole entry, looked up: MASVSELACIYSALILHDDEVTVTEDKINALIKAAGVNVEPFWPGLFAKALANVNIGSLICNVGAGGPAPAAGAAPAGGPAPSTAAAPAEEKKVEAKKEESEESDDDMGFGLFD
# UniProt O94927: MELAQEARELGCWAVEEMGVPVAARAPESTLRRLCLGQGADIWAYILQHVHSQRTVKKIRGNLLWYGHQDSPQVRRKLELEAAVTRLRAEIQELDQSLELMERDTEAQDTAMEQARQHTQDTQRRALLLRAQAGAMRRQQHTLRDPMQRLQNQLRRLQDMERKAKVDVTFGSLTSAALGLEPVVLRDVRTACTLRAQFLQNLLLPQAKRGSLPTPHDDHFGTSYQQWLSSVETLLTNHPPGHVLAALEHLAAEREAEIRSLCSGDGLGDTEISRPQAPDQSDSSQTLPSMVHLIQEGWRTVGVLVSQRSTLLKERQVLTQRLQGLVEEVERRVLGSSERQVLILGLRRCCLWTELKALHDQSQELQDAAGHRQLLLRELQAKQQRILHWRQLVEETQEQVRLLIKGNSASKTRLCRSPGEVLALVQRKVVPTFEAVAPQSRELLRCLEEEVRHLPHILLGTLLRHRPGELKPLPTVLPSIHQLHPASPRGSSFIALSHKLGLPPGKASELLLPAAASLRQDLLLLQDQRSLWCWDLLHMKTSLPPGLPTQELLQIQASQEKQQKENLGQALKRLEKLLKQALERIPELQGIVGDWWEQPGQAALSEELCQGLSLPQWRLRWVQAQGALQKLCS
# UniProt P07814: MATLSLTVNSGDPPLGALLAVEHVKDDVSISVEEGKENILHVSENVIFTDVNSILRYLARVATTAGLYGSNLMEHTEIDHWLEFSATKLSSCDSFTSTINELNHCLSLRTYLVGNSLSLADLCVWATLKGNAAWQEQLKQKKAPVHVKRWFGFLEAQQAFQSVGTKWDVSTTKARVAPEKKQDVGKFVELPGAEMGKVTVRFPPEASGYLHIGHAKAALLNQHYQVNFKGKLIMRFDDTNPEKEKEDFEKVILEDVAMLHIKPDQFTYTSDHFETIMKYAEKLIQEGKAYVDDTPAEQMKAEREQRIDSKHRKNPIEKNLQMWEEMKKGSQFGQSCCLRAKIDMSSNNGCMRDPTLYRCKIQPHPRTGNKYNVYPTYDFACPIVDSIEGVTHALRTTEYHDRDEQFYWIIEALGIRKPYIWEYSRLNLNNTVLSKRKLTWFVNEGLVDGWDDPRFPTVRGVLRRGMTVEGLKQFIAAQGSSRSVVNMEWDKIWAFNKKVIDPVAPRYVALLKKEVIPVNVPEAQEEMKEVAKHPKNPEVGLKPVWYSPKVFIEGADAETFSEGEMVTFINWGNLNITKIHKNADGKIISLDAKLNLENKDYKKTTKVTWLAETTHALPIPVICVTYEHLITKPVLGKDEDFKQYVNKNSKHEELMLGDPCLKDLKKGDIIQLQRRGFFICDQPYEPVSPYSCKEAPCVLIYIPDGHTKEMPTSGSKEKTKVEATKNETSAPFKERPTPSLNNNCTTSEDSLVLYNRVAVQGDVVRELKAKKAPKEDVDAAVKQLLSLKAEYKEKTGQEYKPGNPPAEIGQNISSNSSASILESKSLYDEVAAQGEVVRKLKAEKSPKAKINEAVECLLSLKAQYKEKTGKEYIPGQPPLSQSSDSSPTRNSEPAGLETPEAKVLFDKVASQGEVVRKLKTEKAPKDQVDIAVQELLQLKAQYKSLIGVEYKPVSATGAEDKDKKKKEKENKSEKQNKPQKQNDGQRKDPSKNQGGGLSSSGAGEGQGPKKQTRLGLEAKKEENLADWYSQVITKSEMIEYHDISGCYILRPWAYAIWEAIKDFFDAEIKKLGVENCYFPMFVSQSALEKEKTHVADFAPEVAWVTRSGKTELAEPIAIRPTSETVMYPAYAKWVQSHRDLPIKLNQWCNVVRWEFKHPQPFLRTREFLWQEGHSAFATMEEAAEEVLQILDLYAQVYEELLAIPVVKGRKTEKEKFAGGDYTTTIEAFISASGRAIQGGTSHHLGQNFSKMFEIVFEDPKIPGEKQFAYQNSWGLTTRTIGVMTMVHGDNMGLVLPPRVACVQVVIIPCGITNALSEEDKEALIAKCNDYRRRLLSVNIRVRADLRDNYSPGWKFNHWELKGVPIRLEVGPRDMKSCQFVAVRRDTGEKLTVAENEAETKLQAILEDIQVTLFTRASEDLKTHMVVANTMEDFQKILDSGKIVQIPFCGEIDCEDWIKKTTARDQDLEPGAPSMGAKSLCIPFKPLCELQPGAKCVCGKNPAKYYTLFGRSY
# The entries are a selection whose mix differs from that of the whole data set.
# Compound: COC(=O)C#Cc1ccccc1 [methyl 3-phenylpropiolate]
# Experiment: log2 ratio of iodoacetamide-alkyne labeling of the cysteine site, DMSO over compound (competition); higher = stronger covalent engagement of the cysteine by the compound, active = 1 or more
# Conditions: 500 µM; treatment time 1 h; system: HEK293T cell lysate
# How it was run: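 Three replicates, each with duplicate channels, were prepared from HEK293T lysate (2 mg/mL) treated with vehicle or electrophile at 500 µM for 1 h at ambient temperature. Iodoacetamide alkyne was then applied for 1 h, and samples were clicked to sCIP-TMT reagents, pooled, trypsin-digested overnight at 37 °C, enriched on streptavidin, acid-eluted and analysed on Orbitrap Eclipse LC-MS/MS with FAIMS, with FragPipe quantification. The log2 competition ratio per cysteine is the mean control-channel divided by the mean compound-channel reporter intensity. Cysteines quantified in only one replicate were left out.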
row,Target,log2 ratio of iodoacetamide-alkyne labeling
1,ANXA2 C9 (UniProt P07355),inactive: 0.243
2,UniProt O95551_C273,inactive: -0.192
3,SSB C18 (UniProt P05455),inactive: -0.139
4,UniProt O95232_C58,inactive: 0.0546
5,DDHD2 C470 (UniProt O94830),inactive: 0.283
6,LDHB C164 (UniProt P07195),inactive: 0.405
7,SVIL C178 (UniProt O95425),inactive: 0.364
8,ALDH2 C179 (UniProt P05091),inactive: 0.688
9,NPM1 C21 (UniProt P06748),inactive: 0.178
10,PRPF6 C558 (UniProt O94906),inactive: 0.0878
11,HERC2 C1005 (UniProt O95714),inactive: 0.239
12,PGK1 C379 (UniProt P00558),inactive: 0.0989
13,SASH1 C406 (UniProt O94885),active: 1.19
14,ALDOA C290 (UniProt P04075),inactive: -0.0495
15,TTC4 C238 (UniProt O95801),inactive: 0.078
16,RPLP1 C61 (UniProt P05386),inactive: 0.227
17,ACTL6A C152 (UniProt O96019),inactive: -0.0402
18,UniProt O94927_C35,inactive: -0.301
19,EPRS C350 (UniProt P07814),inactive: 0.193
20,EPRS C105 (UniProt P07814),inactive: 0.298
21,KIF20A C270 (UniProt O95235),inactive: 0.563
22,HSPA4L C540 (UniProt O95757),inactive: 0.885

# Exported bar-delimited: part of the list above.
row | Target | log2 ratio of iodoacetamide-alkyne labeling
20 | EPRS C105 (UniProt P07814) | inactive: 0.298
21 | KIF20A C270 (UniProt O95235) | inactive: 0.563
